According to PubChem BioAssay AID488840 (Broad Institute, 2010):
Screen size: about 1,400 compounds; about 45 (3%) were called active.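 How the source made its calls: active means half-maximal dose of signal decrease from fit no higher than ten times the top valid tested dose; inconclusive means fit invalid, or curve flat with 30 to 70% inhibition; inactive means the rest.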 Some of the results follow. Potency and affinity values are given separately.

Chains of the proteins cited; added tags and fusions are not shown. Lines headed by an entry give the natural chain unless they say otherwise; changes in a name come on top.
UniProt O75164: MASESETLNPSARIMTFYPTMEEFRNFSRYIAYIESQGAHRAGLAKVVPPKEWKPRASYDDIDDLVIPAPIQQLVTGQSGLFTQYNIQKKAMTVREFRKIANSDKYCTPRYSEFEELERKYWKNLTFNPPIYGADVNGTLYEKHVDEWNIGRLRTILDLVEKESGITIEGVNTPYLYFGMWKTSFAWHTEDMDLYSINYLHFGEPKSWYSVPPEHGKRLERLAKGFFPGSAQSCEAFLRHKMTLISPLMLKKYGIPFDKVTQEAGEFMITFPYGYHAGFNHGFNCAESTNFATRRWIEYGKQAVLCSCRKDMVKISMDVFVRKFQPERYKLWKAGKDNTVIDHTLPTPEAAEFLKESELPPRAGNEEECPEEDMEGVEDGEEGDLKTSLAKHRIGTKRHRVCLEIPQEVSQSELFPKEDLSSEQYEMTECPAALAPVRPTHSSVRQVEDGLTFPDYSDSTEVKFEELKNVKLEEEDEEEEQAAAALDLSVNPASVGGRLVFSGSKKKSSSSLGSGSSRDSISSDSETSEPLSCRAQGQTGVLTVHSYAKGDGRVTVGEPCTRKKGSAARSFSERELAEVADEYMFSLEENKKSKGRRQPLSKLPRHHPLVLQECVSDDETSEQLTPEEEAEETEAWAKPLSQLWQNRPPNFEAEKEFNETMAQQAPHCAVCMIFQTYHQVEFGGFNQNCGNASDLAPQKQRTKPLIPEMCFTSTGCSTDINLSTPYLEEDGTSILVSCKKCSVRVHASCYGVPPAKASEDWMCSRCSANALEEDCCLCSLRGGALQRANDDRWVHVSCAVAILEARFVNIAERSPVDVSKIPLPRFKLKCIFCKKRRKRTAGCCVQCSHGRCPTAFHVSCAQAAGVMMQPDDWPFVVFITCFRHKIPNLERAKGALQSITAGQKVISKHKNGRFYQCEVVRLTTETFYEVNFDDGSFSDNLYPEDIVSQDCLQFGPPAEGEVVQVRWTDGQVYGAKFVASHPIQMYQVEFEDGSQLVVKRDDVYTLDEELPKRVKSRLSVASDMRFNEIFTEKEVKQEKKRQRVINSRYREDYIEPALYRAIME

Target: Lysine-specific demethylase 4A (Homo sapiens) (UniProt O75164)
Experiment: JMJD2A histone demethylase inhibitors, dose response, selectivity assay for GASC-1 inhibitor project, biochemical, DELFIA europium, cherry-picked samples (AID 488840);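 further: europium signal reports the dimethyl H3K9 product detected by antibody so inhibitors lower it; 0% = median of neutral control wells and -100% = median of positive control wells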
Conditions: GST-JMJD2A(1-420) H3K9me3 demethylation; at 6 µM (top of the series) unless noted

Activity change, negative = inhibition, inactive:
N/C(=N\S(=O)(=O)c1cc(C(F)(F)F)cc(C(F)(F)F)c1)c1ccccc1 -1.03%
CC1CCN(C(=S)NC(=O)c2cccc([N+](=O)[O-])c2)CC1 -0.366%
COc1ccc(NC(=O)N(C)C[C@H]2Oc3c(NC(=O)C4CC4)cccc3C(=O)N([C@H](C)CO)C[C@@H]2C)cc1 3.75%
CC(C)C[C@@H]1CN=C(N)N1C[C@@H]1CCCN1C[C@H](C)N1C[C@@H](Cc2ccccc2)N(CCc2ccc(Cl)c(Cl)c2)C1=N 25.9%
Cc1noc(C)c1S(=O)(=O)N(C)C[C@H]1Oc2c(NC(=O)Nc3ccccc3)cccc2C(=O)N([C@H](C)CO)C[C@@H]1C 3.34%
Cc1ccc(Nc2nnc(SCC(=O)N(C)C3CCS(=O)(=O)C3)s2)cc1 (stereo unspecified) 3.34%
Cc1ccc(-c2csc3nc4cc(C(=O)NC5CCC(O)CC5)ccc4c(=O)n23)cc1 (stereo unspecified) -4.49%
COc1ccc(CCNC(=O)CSCc2n[nH]c(=O)[nH]2)cc1OC -4.25%
O=C1NCCC/C1=N/Nc1ccc(F)cc1 0.703%
COc1ccc(OC)c(/C=C2\SC(=S)N(Cc3cccnc3)C2=O)c1 0.643%
Cc1cc(=O)[nH]c(CN2CCOCC2)n1 0.421%
Cc1ccc(C(=O)Nc2sc3c(c2C(=O)O)CCCC3)o1 0.458%
COc1ccc(/C(C)=N/Nc2nccnc2Cl)cc1 1.18%
Cc1cccc(NS(=O)(=O)c2cccc3nsnc23)c1 1.62%
C[C@H](CO)N1C[C@H](C)[C@@H](CN(C)S(=O)(=O)c2ccccc2)Oc2c(NC(=O)CCC(F)(F)F)cccc2C1=O -0.45%
CN(C(=O)COc1ccccc1)c1nnc(-c2ccncc2)s1 -1.74%
O=c1ccc(=O)n2n1CC(O)C2 2.05%
C#CCOCCOCCOCCNc1nc(N2CCN(C(=O)[C@H](CCC(=O)O)n3cc([C@@H](N)CCCCN)nn3)CC2)nc(N2CCN(C(=O)[C@H](CCC(=O)O)n3cc([C@@H](N)CCCCN)nn3)CC2)n1 2.24%
CN(c1cccc(Cl)c1)S(=O)(=O)c1cccc(C(=O)Nc2ccc3c(c2)CCC3)c1 8.71%
C=CCNC(=O)c1ccc(S(=O)(=O)CC)c(Cl)c1Cl -3.08%
COCCCn1c(SCC(=O)NCc2ccco2)nc2sc3c(c2c1=O)CCC3 -0.648%
COCCCNC(=O)c1ccc2c(c1)CCN2S(C)(=O)=O 3.39%
Cc1cccc(NC(=O)C2CCN(S(=O)(=O)c3cccc4nsnc34)CC2)n1 1.1%
CCCn1nnnc1SCC(=O)NNC(=O)c1ccco1 2.08%
S=c1[nH]nc(COc2ccccc2)n1/N=C/c1ccccn1 2.51%
CCOc1ccc(-c2nc(CSCC(=O)NC3CCCc4ccccc43)c(C)o2)cc1 (stereo unspecified) -2.21%
COC(=O)CNS(=O)(=O)c1ccc(C)cc1 2.35%
CN(C(=O)c1ccccn1)c1nnc(-c2ccccn2)s1 -3.27%
O=C(/C=C/c1cc([N+](=O)[O-])ccc1OC(F)F)Nc1ccc(OC(F)F)cc1 1.27%
COC(=O)C1=C(C(=O)OC)SC(=C2C(=S)C(C)(C)N(C(=O)C(C)C)c3ccccc32)S1 -2.33%
CCOC(=O)c1c(C)n(C)c2ccc(O)c(S(=O)(=O)c3ccccc3)c12 -4.8%
CCc1ccc(-c2cc(C)no2)cc1S(=O)(=O)NCCc1ccc(OC)c(OC)c1 -4.55%
Cn1c(=O)c2c(ncn2CCN(CCO)Cc2ccccc2)n(C)c1=O -4.48%
Fc1ccccc1OCCCCn1cncn1 -0.332%
CCCCC1CCC(C(=O)N(CC(C)C)c2c(N)n(Cc3ccccc3)c(=O)[nH]c2=O)CC1 (stereo unspecified) 3.81%
N#CC(C(=O)NCCc1ccccc1)c1nc2ccccc2nc1N1CCOCC1 (stereo unspecified) 2.1%
CS(=O)(=O)NC1c2cccc3cccc(c23)C1Sc1nncn1/N=C/c1ccco1 (stereo unspecified) -5.02%
Cc1ccc(CNC(=O)Cc2ccc(-c3ccccc3)cc2)cc1 6.79%
Cn1c2ccccc2c(=O)c2ccc(NCCc3cccs3)cc21 3.45%
CC1CCN(C(=O)CSc2nnc(CNC(=O)c3c(F)cccc3F)o2)CC1 8.76%
CCn1c(=O)c(C(=O)CN2c3ccccc3CC2C)c(N)n(Cc2ccccc2)c1=O (stereo unspecified) 2.08%
COc1cccc(C(c2nnnn2CCc2ccccc2)N2CCN(c3ccccc3)CC2)c1OC (stereo unspecified) 1.91%
CCOC(=O)Cc1csc(NC(=O)COc2cccc(C)c2)n1 -2.61%
Cc1cnn(C(=O)c2ccccc2Br)c1 -7.68%
CS(=O)(=O)N(CCc1ccccc1)CC(=O)NCC1CCCO1 (stereo unspecified) 3.91%
Cn1c(=O)n(C)c2cc(S(=O)(=O)N3CCOCC3)ccc21 -4.32%
O=C(NCCCN1CCCC1=O)c1cc(-c2cccnc2)nc2ccc(Cl)cc12 -1.88%
Cc1ccccc1CN1C(=O)C(O)(CC(=O)c2ccncc2)c2ccccc21 (stereo unspecified) -4.55%
CCOC(=O)c1c(C)[nH]c(C(=O)CN2CCOCC2)c1C -0.147%
CC(OC(=O)c1ccc([N+](=O)[O-])s1)C(=O)Nc1ncc(Cl)cc1Cl (stereo unspecified) 0.116%
O=C(Nc1ccc(Cl)cc1)N1CCN(c2ccccc2)CC1 6.39%
COc1ccc(CCN2C(=O)CC(NNC(=O)c3ccccc3Br)C2=O)cc1 (stereo unspecified) 5.48%
CNC[C@H]1Oc2c(NS(=O)(=O)c3cccs3)cccc2C(=O)N([C@H](C)CO)C[C@@H]1C -0.699%
C=CCn1c(N2CCCCCC2)nc2c1c(=O)[nH]c(=O)n2C -2.83%
CN(C)CCCN1C(=O)C(=O)/C(=C(/O)c2ccncc2)C1c1ccccc1 (stereo unspecified) -6.22%
O=[N+]([O-])c1cc(/C=N/Nc2nc3ccccc3[nH]2)c(O)cc1O -3.66%
COCCn1nnnc1C(C(C)C)N1CCCC(C)C1 (stereo unspecified) 12.8%
COC(=O)NNC(=S)Nc1cc(OC)ccc1OC 3.22%
CC(C)(C)c1ccc(C(=O)NNC(=O)c2cccc(Br)c2)cc1 -1.86%
Cc1cc(C)n2nc(C(=O)N3CCCC(Nc4ccc(F)c(F)c4)C3)cc2n1 (stereo unspecified) -1.01%
C[C@@]12C(=O)Nc3ccc(Br)cc3C(=O)N1[C@H]1c3ccccc3OC[C@@H]1[C@@H]2c1ccccc1 0.334%
Cc1occc1-c1nnc(SCC(=O)Nc2ccccc2)n1C(C)c1ccccc1 (stereo unspecified) 4.91%
C#CCOCCOCCOCCNc1nc(N2CCN(C(=O)[C@H](CCCCN)n3cc([C@@H](N)[C@H](C)CC)nn3)CC2)nc(N2CCN(C(=O)[C@H](CCC(=O)O)n3cc([C@@H](N)CCSC)nn3)CC2)n1 1.28%
CCOC(=O)N1CCc2c(sc3nc4n(c(=O)c23)N=C(C)CS4)C1 1.41%
CCS(=O)(=O)N1CCCC(C(=O)NCCCN2CCCC2=O)C1 (stereo unspecified) -3.83%
CC(=O)N1CCN(c2ccc(NC(=O)c3ccc4ccccc4c3)cc2)CC1 -2.97%
CC(=O)Nc1n[nH]c(-c2ccc(C)cc2)c1C -3.56%
C[C@@H]1CN([C@H](C)CO)C(=O)c2cccc(NC(=O)c3ccncc3)c2O[C@@H]1CN(C)Cc1ccc(C(=O)O)cc1 -6.22%
Cn1c(CNC(=O)c2ccccc2F)nnc1SCC(=O)Nc1nnc(C2CC2)s1 7.99%
CCCCN(CC)S(=O)(=O)c1ccc(C(=O)Nc2nnc(COC)o2)cc1 -1.78%
Cc1cc(N(C)C)cc(C)[n+]1[O-] -3.46%
Cc1ccc(NC(=O)c2ccc(OC(=O)CCN3C(=O)c4ccccc4C3=O)cc2)cc1 -8.02%
COC(=O)[C@]1(C)N[C@H](CN(C)C(=O)Nc2ccc(C)cc2)[C@@H]2C(=O)N(Cc3ccccc3)C(=O)[C@@H]21 0.249%
Cc1oc(C(C)(C)C)cc1C(=O)N1CCN(c2ncccc2C(F)(F)F)CC1 -11.5%
O=C(O)c1ccc(/C=N/Nc2cccc(C(F)(F)F)c2)cc1 -2.27%
Cn1c(SCC(=O)Nc2cc(S(=O)(=O)N3CCOCC3)ccc2N2CCOCC2)nnc1-c1ccncc1 -2.3%
C[C@@H]1CC[C@]2(C(=O)O[C@@H]3O[C@H](CO)[C@@H](O)[C@H](O)[C@H]3O)CC[C@]3(C)C(=CCC4[C@@]5(C)C[C@@H](O)[C@H](O)[C@@](C)(C(=O)O[C@@H]6[C@H](O)C[C@@]7(C)C(CC[C@]8(C)C7CC=C7[C@H]9[C@](C(=O)O[C@@H]%10O[C@H](CO)[C@@H](O)[C@H](O)[C@H]%10O)(CC[C@@H](C)[C@@]9(C)O)CC[C@]78C)[C@@]6(CO)C(=O)O)C5CC[C@]43C)[C@@H]2[C@]1(C)O (stereo partly specified) -1.66%
O=C(NCc1cccc(F)c1)C1CCN(S(=O)(=O)Cc2ccccc2)CC1 -0.0856%
Cn1cccc1-c1nc2ccc(NC(=O)c3cccs3)cc2[nH]1 0.536%
C[C@H](CO)N1C[C@H](C)[C@@H](CN(C)C(=O)NC2CCCCC2)Oc2c(NC(=O)c3ccncc3)cccc2C1=O -3.17%
Cn1c2ccccc2c2c(C(=O)N3CCN(c4ccccn4)CC3)cn(C3CCCC3)c(=O)c21 4.26%

No new results follow: four of the compounds above.
Activity change, negative = inhibition, inactive:
Cn1c2ccccc2c(=O)c2ccc(NCCc3cccs3)cc21 3.45%
CC1CCN(C(=O)CSc2nnc(CNC(=O)c3c(F)cccc3F)o2)CC1 8.76%
CCn1c(=O)c(C(=O)CN2c3ccccc3CC2C)c(N)n(Cc2ccccc2)c1=O (stereo unspecified) 2.08%
COc1cccc(C(c2nnnn2CCc2ccccc2)N2CCN(c3ccccc3)CC2)c1OC (stereo unspecified) 1.91%
